Results are given in words; binding and its absence hold for the method and conditions named. For some assays here: Binding seen in cells or lysates may run through a third protein. Some binding calls cover weakened binding; strength is not graded here. Where a sequence is shown, tags or fusion partners need not be part of it. Blank lines part the entries; values can stand above or below the binder they belong to.
Tests used:
[1] = target: T1, pKT25-Bd2492 (Bd2492 fused to the T25 fragment of adenylate cyclase) (Bdellovibrio bacteriovorus HD100) (UniProt Q6MKB3); assay: two-hybrid; bacterial two-hybrid with T18 and T25 fragments of adenylate cyclase (pUT18C, pKT25, pKNT25); spot tests and beta-galactosidase assay
T1 sequence: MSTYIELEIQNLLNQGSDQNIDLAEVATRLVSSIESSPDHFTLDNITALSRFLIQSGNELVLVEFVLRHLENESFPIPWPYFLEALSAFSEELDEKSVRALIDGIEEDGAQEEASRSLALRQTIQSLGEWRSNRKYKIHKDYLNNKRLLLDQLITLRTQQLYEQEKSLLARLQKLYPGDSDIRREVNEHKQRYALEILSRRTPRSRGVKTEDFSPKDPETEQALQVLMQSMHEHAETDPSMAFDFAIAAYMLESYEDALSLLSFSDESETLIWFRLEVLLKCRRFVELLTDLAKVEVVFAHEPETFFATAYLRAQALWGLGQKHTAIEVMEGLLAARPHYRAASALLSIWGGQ

[2] = target: T2, His6-tagged Bd2492 (Bd2492-His6) expressed in E. coli from plasmid pD2492N/3734 (Bdellovibrio bacteriovorus HD100) (UniProt Q6MKB3); assay: pull-down; nickel-affinity chromatography of E. coli lysates co-expressing MglA and His6-tagged Bd2492 from plasmid pD2492N/3734; elution with 40 mM and 200 mM imidazole
T2 sequence: T1 sequence

binding [1]: binds
B1: pUT18C-MglA (MglABd fused to the T18 fragment of adenylate cyclase) (protein, UniProt Q6MH29 1-197)
chain: MSFINYNAKEIHCKVVYYGPSLGGKTTNIQWVYQKTAEDQKSKLVALNTDIERTLFFDFLPLNVGDIRGFKTRFHLYTVPGQVVYDASRKLILKGLDGVIFVADSQIERMDENLESLRNLERNLEQQGYDIREIPLIMQYNKRDLPNVASLAELRSALNPYNAPEIEGCASEGRGVFESLKTVSKSIINVLKGGTTL

binding [2]: binds
B2: MglA (Bd3734) co-expressed in E. coli from plasmid pD2492N/3734 (natural protein, Bdellovibrio bacteriovorus HD100, UniProt Q6MH29 1-197, looked up)
chain: B1 chain
notes: MglA (Bd3734) of Bdellovibrio bacteriovorus HD100; No tag is named on MglA in this construct; source: E. coli, heterologously co-expressed with Bd2492-His6 from plasmid pD2492N/3734
